In patent US20230322908A1:
No constants are given. Whether binding was seen depends on the method and setting. Some entries that bind do so weakly or less than the wild type. Values belong to the binder of their own block, whether it stands above or below them.

By UniProt entry, the sequences of proteins in these tests, tags left out. Residues count along the entry.
UniProt Q13148, residues 208-414: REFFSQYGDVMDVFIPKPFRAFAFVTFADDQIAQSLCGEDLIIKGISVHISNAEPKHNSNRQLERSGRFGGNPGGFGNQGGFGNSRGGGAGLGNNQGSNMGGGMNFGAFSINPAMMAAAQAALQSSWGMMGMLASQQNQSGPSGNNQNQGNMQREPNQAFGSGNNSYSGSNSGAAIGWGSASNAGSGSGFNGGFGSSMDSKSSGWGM

Legend:
[1] = target: C-terminal fragments of TDP-43 in the sarkosyl insoluble fraction of FTD type A postmortem brain (human) (UniProt Q13148); assay: Western blot, denaturing; lane 2 sarkosyl insoluble fraction of FTD type A frontal cortex
[2] = target: phosphorylated TDP-43 (pTDP-43) in sarkosyl insoluble fractions of FTD type A brain (human) (UniProt Q13148); assay: immunodepletion/immunoprecipitation, Protein G beads, Western blot
[3] = target: phosphorylated TDP-43 (pTDP-43) in sarkosyl insoluble fractions of FTD type A brain (human) (UniProt Q13148); assay: immunodepletion and immunoprecipitation with antibody on Protein G beads from the sarkosyl insoluble fraction of FTD type A brain; Western blot probed for pTDP-43
[4] = target: C-terminal fragments of TDP-43 in the sarkosyl insoluble fraction of FTD type A postmortem brain (human) (UniProt Q13148); assay: immunodepletion and immunoprecipitation with antibody on Protein G beads from the sarkosyl insoluble fraction of FTD type A brain; Western blot probed for total TDP-43
[5] = target: aggregated TDP-43 in human FTD brain tissue sections (human) (UniProt Q13148); assay: IHC, FTD brain sections

binding [2]: binds | binding [3]: binds | binding [4]: binds
B2: hACI-7069-633B12-Ab1_H19L18 (IgG1 isotype) (antibody, V domains shown)
VH: QVQLVQSGAEVKKPGASVKVSCKTSGFTFTEYSMHWVRQAPGQRLEWIGGINPGNAGTSYNQKFKGRVTITVDTSASTAYMELSSLRSEDTAVYYCARESWGQGTTVTVSS
VL: DVVMTQSPLSLPVTLGQPASISCKSSQSLLHSDAKTYLNWLQQRPGQSPRRLIYLVSKLDSRVPDRFSGSGSGTDFTLKISRVEAEDLGVYYCFQGTHFPHTFGQGTKLEIK

binding [5]: binds
B6: ACI-7071-809F12-Ab1 (antibody, mouse IgG2b, V domains shown)
VH: QVQLKESGPGLVAPSQSLSITCTVSGFSLNRNGVQWVRQPPGKGLEWLGVIWPGGSTNCNSALMSRLSISKDNSKSQVFLKMNSLHTDDTGIYYCARVGGNYVWDYNNYAWGQGTLVTVSA
VL: DVLMTQTPLSLPVSLGDQASISCRSSQNIVHSIGNTYLEWYLQKPGQSPKLLIYKVSNRFSGVPDRFSGSGSGTDFTLKISRVEAEDLGVYYCFQGSHVPYTFGGGTKLEIR

Second part, the binder before the results:

B1: ACI-7069-636E5-Ab1 (antibody, mouse IgG2b, V domains shown)
VH: EVHLVESGGDLVMPGGSLKLSCAASGFTFSNYGMSWVRQTPDKRLEWVATISSGGKYINYLDSLKGRFTISRDNAKNTLYLQMSSLKSEDTAMYYCAKDYGSGWAWFAYWGQGTLVTVSA
VL: QLVLTQSSSASFSLGASAKLTCTLSSQHSTYTIEWYQQQPLKPPKYVMELKKDGSHSTGDGIPDRFSGSSSGADRYLSISNIQPEDEAIYICGVGDTIKEQFVYVFGGGTKVTVL
binding [1]: binds

B3: ACI-7069-641H1-Ab2 (antibody, mouse IgG2b, V domains shown)
VH: QVQLKESGPGLVAPSQSLSITCTVSGFSLTNYGVHWVRQPPGKGLEWLGLMWAGGSTNYNSALMSRLSISKDNSKSQVFLKMNSLQTDDTAMYYCVIYRTGFAYWGQGTLVTVSA
VL: DVLMTQTPLSLPVSLGDQASISCRSSQSIVHTIGNTYLEWYLQKPGQSPKLLIYKVSNRFSGVPDRFSGSGSGTDFTLKISRVEAEDLGVYYCFQGSHVPFTFGSGTKLEIK
binding [5]: binds

B4: ACI-7069-646B7-Ab1 (antibody, mouse IgG2b, V domains shown)
VH: QVQLKESGPGLVAPSQSLSITCTVSGFSLTNFGVHWVRQPPGKGLEWLGIMWAGGSTNYNSALMSRLSISKDNSKSQVFLKMNSLQTDDTAMYYCVIYKTGFAYWGQGTLVTVSA
VL: DVLMTQTPLSLPVSLGDQASISCRSSQSIVHAIGNTYLEWYLQKPGQSPKLLIYKVSNRFSGVPDRFSGSGSGTDFTLKISRVEAEDLGVYYCFQGSHVPFTFGSGTKLEIK
binding [5]: binds

B5: ACI-7071-809D9-Ab2 (antibody, mouse IgG2b, V domains shown)
VH: QVQLQQSGAELVRPGVSVKISCKGSGYKFTDYSMHWVKQSHTKSLEWIGVISTYYGDTTYNQKFKGKATITVDKSSSTAYMELARLTSEDSAIYYCATYGNFPASFSYWGQGTLVTVSA
VL: DIVMTQAAPSIPVTPGESVSISCRSSKSLLHSNGNTYLYWFLQRPGQSPQLLIYRMSNLASGVPDRFSGSGSGTAFTLRISRVEAEDVGVYYCMQHLEYPFTFGSGTKLEIK
binding [5]: binds
